# Test results as given in article PMC6776906.
# Protein sequences, listed by entry. Tags and fused reporters are not part of them. Residues count along the entry.
# UniProt O15118, residues 23-1278: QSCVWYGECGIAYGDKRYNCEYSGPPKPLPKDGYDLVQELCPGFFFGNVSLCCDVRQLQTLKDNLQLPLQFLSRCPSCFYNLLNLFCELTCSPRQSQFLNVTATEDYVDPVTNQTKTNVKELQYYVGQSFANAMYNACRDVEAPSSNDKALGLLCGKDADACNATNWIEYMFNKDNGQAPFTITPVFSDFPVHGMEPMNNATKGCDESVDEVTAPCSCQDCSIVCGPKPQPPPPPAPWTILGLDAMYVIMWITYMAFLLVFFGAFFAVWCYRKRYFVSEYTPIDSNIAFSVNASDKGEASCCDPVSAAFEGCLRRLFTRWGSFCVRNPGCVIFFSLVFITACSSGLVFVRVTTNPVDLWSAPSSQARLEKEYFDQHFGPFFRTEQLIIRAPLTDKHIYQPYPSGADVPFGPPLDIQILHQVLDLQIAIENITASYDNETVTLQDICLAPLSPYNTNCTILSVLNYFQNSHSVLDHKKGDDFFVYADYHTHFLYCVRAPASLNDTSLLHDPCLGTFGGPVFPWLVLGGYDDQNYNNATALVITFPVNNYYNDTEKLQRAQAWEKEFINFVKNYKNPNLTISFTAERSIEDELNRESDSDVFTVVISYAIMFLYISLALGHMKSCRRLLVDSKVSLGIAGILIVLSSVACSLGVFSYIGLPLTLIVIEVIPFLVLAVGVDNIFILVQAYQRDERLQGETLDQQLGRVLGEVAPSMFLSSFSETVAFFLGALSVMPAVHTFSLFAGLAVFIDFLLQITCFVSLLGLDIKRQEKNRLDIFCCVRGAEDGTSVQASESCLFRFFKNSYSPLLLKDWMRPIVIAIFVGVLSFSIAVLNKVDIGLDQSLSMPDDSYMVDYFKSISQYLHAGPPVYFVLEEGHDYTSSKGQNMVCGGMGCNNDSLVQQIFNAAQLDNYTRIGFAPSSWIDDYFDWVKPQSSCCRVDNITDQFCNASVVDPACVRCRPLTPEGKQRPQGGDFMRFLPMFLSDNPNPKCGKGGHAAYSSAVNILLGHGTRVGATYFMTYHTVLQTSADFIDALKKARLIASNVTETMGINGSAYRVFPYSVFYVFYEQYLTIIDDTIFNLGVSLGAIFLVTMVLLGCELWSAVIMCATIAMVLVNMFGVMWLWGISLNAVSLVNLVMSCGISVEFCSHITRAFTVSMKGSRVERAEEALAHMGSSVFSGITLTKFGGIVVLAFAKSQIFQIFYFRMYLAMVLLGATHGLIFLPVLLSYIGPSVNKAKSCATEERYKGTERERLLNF
# Results are given in words; binding and its absence hold for the method and conditions named. Binding seen in cells or lysates may run through a third protein. A yes stands for co-enrichment or nearness to the bait. Other partners may have been found. Tags and fused reporters may be left off the sequences shown.
# T1: UBE2QL1-myc-APEX2 (human) (UniProt A1L167)
# T1 sequence: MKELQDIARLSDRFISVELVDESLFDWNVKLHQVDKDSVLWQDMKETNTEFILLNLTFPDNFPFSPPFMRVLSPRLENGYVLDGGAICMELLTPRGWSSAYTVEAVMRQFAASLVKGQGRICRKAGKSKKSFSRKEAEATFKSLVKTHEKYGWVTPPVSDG
# Target: T1, UBE2QL1-myc-APEX2 (human)
# Assay: proximity labelling; UBE2QL1-APEX2 stably expressed in HeLa cells; 500 uM biotin phenol for 30 min, H2O2 pulse 1 min at room temperature; SILAC comparison of LLOMe-treated (250 uM, 3 h, heavy) against EtOH-treated (light) cells; lysis in APEX-RIPA, streptavidin agarose purification, mass spectrometry; four replicates
row,binding,Molecule
1,binds,NPC1 (from UniProt O15118 23-1278)
2,binds,VCP/p97 (from UniProt P55072 1-806) (enzyme)
3,binds,"LIMP2 (also called SCARB2) (protein, UniProt Q14108 1-478) MGRCCFYTAGTLSLLLLVTSVTLLVARVFQKAVDQSIEKKIVLRNGTEAFDSWEKPPLPVYTQFYFFNVTNPEEILRGETPRVEEVGPYTYRELRNKANIQFGDNGTTISAVSNKAYVFERDQSVGDPKIDLIRTLNIPVLTVIEWSQVHFLREIIEAMLKAYQQKLFVTHTVDELLWGYKDEILSLIHVFRPDISPYFGLFYEKNGTNDGDYVFLTGEDSYLNFTKIVEWNGKTSLDWWITDKCNMINGTDGDSFHPLITKDEVLYVFPSDFCRSVYITFSDYESVQGLPAFRYKVPAEILANTSDNAGFCIPEGNCLGSGVLNVSICKNGAPIIMSFPHFYQADERFVSAIEGMHPNQEDHETFVDINPLTGIILKAAKRFQINIYVKKLDDFVETGDIRTMVFPVMYLNESVHIDKETASRLKSMINTTLIITNIPYIIMALGVFFGLVFTWLACKGQGSMDEGTADERAPLIRT"
